# Data as given in PubChem BioAssay AID1259308 (NCATS, 2017).
# Aim: 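Candidate targets for better recombinant protein yield in mammalian cells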 (primary screen)
# Cell system: human HEK293 embryonic kidney cells stably expressing firefly luciferase (HEK-CMV-Luc2-Hygro)
# Knock-down reagent: single siRNA against human genes, 0.8 pmol siRNA per well
# Duration: 72 h
# Measured: 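Luciferase light (ONE-Glo) measured on one replicate plate set and viability (CellTiter-Glo) on the other, scaled to a negative control siRNA, with robust z-scores and luciferase per cell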
# Direction: total luciferase, z-score and total luciferase, % of control: higher = more reporter protein produced
# Active means: 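An siRNA counts as active if its total luciferase robust z-score exceeds 3; genes with two or more such siRNAs out of three were retested with fresh siRNAs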
# Calls: active = raised luciferase; inactive = no rise
# This is one part, drawn at random, of about 59,000 deposited reagents. About 1,510 of them (2.6%) were called active. 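Calls use total luciferase alone and ignore viability, so some active siRNAs may act by altering cell number.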 A number with no mark means an inactive call. The numbers tell different reagents against one gene apart. Not all columns of the deposit are shown. Reagent sequences are not shown.
Target gene,siRNA no.,"total luciferase, z-score","total luciferase, % of control"
KDM2A (lysine demethylase 2A),1,-0.543,71.1
KDM2A (lysine demethylase 2A),2,-0.583,70.3
KDM2A (lysine demethylase 2A),3,-0.225,77.4
TANGO2 (transport and golgi organization 2 homolog),1,-1.17,58.6
TANGO2 (transport and golgi organization 2 homolog),2,-0.246,77
TANGO2 (transport and golgi organization 2 homolog),3,-0.691,68.1
CFP (complement factor properdin),1,1.36,109
CFP (complement factor properdin),2,-1.23,57.4
CFP (complement factor properdin),3,-0.417,73.6
MLLT1 (MLLT1 super elongation complex subunit),1,0.0355,82.6
MLLT1 (MLLT1 super elongation complex subunit),2,-0.788,66.2
MLLT1 (MLLT1 super elongation complex subunit),3,-0.328,75.4
NUTM1 (NUT midline carcinoma family member 1),1,0.894,99.7
NUTM1 (NUT midline carcinoma family member 1),2,-0.251,76.9
NUTM1 (NUT midline carcinoma family member 1),3,2.59,133
TAS2R5 (taste 2 receptor member 5),1,2.1,124
TAS2R5 (taste 2 receptor member 5),2,-0.776,66.5
TAS2R5 (taste 2 receptor member 5),3,0.855,98.9
FAM120AOS (family with sequence similarity 120 member A opposite strand),1,0.475,91.3
FAM120AOS (family with sequence similarity 120 member A opposite strand),2,0.106,84
FAM120AOS (family with sequence similarity 120 member A opposite strand),3,0.172,85.3
ATF2 (activating transcription factor 2),1,-1.52,51.7
ATF2 (activating transcription factor 2),2,-2.08,40.5
ATF2 (activating transcription factor 2),3,-0.104,79.8
TCTN2 (tectonic family member 2),1,1.08,103
TCTN2 (tectonic family member 2),2,-0.226,77.4
TCTN2 (tectonic family member 2),3,0.0643,83.2

Targets listed so far whose target name begins with A or a:
Target gene,siRNA no.,"total luciferase, z-score","total luciferase, % of control"
ATF2 (activating transcription factor 2),1,-1.52,51.7
ATF2 (activating transcription factor 2),2,-2.08,40.5
ATF2 (activating transcription factor 2),3,-0.104,79.8

More entries follow.
Target gene,siRNA no.,"total luciferase, z-score","total luciferase, % of control"
ADH5P4 (ADH5 pseudogene 4),1,-0.331,75.3
ADH5P4 (ADH5 pseudogene 4),2,-1.4,54
ADH5P4 (ADH5 pseudogene 4),3,2.07,123
G6PC3 (glucose-6-phosphatase catalytic subunit 3),1,2.35,129
G6PC3 (glucose-6-phosphatase catalytic subunit 3),2,-1.49,52.2
G6PC3 (glucose-6-phosphatase catalytic subunit 3),3,1.93,120
FBP1 (fructose-bisphosphatase 1),1,-0.575,70.4
FBP1 (fructose-bisphosphatase 1),2,0.412,90.1
FBP1 (fructose-bisphosphatase 1),3,-0.279,76.3
RPS2P12 (ribosomal protein S2 pseudogene 12),1,0.265,87.2
RPS2P12 (ribosomal protein S2 pseudogene 12),2,0.768,97.2
RPS2P12 (ribosomal protein S2 pseudogene 12),3,-0.233,77.2
WDFY3 (WD repeat and FYVE domain containing 3),1,-0.0167,81.6
WDFY3 (WD repeat and FYVE domain containing 3),2,-0.88,64.4
WDFY3 (WD repeat and FYVE domain containing 3),3,0.701,95.8
HTR1E (5-hydroxytryptamine receptor 1E),1,0.396,89.8
HTR1E (5-hydroxytryptamine receptor 1E),2,-0.27,76.5
HTR1E (5-hydroxytryptamine receptor 1E),3,-0.234,77.2
SLC9A3,1,1.08,103
SLC9A3,2,0.469,91.2
SLC9A3,3,1.2,106
CWF19L2 (CWF19 like cell cycle control factor 2),1,1.04,103
CWF19L2 (CWF19 like cell cycle control factor 2),2,0.894,99.7
CWF19L2 (CWF19 like cell cycle control factor 2),3,1.91,120
UPF1 (UPF1 RNA helicase and ATPase),1,4.9 (active),179
UPF1 (UPF1 RNA helicase and ATPase),2,1.34,109
UPF1 (UPF1 RNA helicase and ATPase),3,2.42,130
KRTAP9-4 (keratin associated protein 9-4),1,0.328,88.4
KRTAP9-4 (keratin associated protein 9-4),2,0.492,91.7
KRTAP9-4 (keratin associated protein 9-4),3,-1.49,52.2
OR7A10 (olfactory receptor family 7 subfamily A member 10),1,1.69,115
OR7A10 (olfactory receptor family 7 subfamily A member 10),2,0.184,85.5
OR7A10 (olfactory receptor family 7 subfamily A member 10),3,2.26,127
NOS3 (nitric oxide synthase 3),1,2.12,124
NOS3 (nitric oxide synthase 3),2,0.375,89.4
NOS3 (nitric oxide synthase 3),3,-0.96,62.8
PRAC1 (PRAC1 small nuclear protein),1,0.0617,83.1
PRAC1 (PRAC1 small nuclear protein),2,-1.09,60.2
PRAC1 (PRAC1 small nuclear protein),3,-0.654,68.9
CLEC4D (C-type lectin domain family 4 member D),1,0.502,91.9
CLEC4D (C-type lectin domain family 4 member D),2,-1.14,59.2
CLEC4D (C-type lectin domain family 4 member D),3,-0.0495,80.9
CTXN1 (cortexin 1),1,2.67,135
CTXN1 (cortexin 1),2,0.69,95.6
CTXN1 (cortexin 1),3,-1.1,59.9
GSTM4 (glutathione S-transferase mu 4),1,0.334,88.5
GSTM4 (glutathione S-transferase mu 4),2,-2.17,38.6
GSTM4 (glutathione S-transferase mu 4),3,0.14,84.7
